The filed quantity is “Percent Effect” (%).
How 0% and 100% were set is not recorded. Most values in the screen are low, and negative values occur.
Compounds were drawn at random from those tested, without regard to their results.

The chains behind the UniProt entries cited, without tags or fusion partners. Residues count along the entry.
UniProt P9WNZ1, whole entry: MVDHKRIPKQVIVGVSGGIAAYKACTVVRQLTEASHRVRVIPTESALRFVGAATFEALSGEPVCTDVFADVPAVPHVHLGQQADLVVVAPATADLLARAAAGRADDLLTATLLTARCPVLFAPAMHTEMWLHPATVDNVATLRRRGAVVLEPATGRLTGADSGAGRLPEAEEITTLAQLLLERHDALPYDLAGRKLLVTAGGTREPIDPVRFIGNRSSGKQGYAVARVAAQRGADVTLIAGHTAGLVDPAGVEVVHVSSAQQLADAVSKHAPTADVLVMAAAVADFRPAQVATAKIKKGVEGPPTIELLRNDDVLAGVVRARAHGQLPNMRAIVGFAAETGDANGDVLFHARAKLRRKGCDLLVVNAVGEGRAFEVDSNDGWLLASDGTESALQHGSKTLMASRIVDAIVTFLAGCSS
UniProt Q4DA54, 1-478: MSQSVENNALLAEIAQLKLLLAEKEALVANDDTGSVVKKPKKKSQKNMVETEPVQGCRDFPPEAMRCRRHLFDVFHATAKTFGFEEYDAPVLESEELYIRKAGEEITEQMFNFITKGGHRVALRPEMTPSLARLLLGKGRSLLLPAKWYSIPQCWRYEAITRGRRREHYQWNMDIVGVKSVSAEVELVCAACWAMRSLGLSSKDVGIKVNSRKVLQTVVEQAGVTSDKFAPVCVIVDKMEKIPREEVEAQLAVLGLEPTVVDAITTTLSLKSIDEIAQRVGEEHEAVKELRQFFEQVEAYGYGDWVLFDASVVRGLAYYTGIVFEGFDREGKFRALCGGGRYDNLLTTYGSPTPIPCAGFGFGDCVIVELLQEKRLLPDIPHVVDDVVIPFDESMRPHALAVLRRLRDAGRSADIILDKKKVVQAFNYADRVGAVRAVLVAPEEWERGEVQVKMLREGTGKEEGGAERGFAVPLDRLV

CoaBC: 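Coenzyme A biosynthesis protein CoaBC, Mycobacterium tuberculosis (UniProt P9WNZ1). Enzyme assay of CoaBC with a phosphate dye (Biomol Green) read at 650 nm. Compounds at 30 µM. Direction is inferred from only a few compounds that gave an IC50; most scored high, so higher reads as stronger inhibition. Most strong results did not repeat in a second test. About 67,000 compounds were tested under these conditions; 0.06% (about 40) showed 50% or more at least once.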
TcHisRS: 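Enzyme assay of histidyl-tRNA synthetase; the read-out is not stated. Target: Histidine-tRNA ligase, Trypanosoma cruzi CL Brener (UniProt Q4DA54). Compounds at 30 µM. The record gives no direction; compounds that gave an IC50 in retests scored well above the rest, so higher reads as stronger inhibition. About 69,000 compounds were tested under these conditions; 0.045% (about 31) showed 50% or more at least once.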

Result for CNc1nc2c(s1)C(c1cccc(F)c1F)CC(=O)N2 (centres unmarked) was CoaBC: 6.073%; TcHisRS: 3.261%. For Cc1ccc(-c2ccccc2CC2CNCCNC2=O)c(C)c1 (centres unmarked) the result was CoaBC: -11.38%; TcHisRS: 3.955%. For CCc1noc(CNc2c(F)cccc2-n2cccn2)n1 the result was CoaBC: -4.142%; TcHisRS: 2.116%. Result for OCC(CO)N1CCCC(Cc2ccnc(Nc3ccccn3)c2)C1 (centres unmarked) was CoaBC: 3.942%; TcHisRS: 7.576%. With Cc1cccc(N2CC3(CCN(C(=O)NC(C)C)C3)CC2=O)c1 (centres unmarked) the screen gave CoaBC: -0.8403%; TcHisRS: 10.74%. For Cc1noc(C)c1CNC(=O)c1ccc(NC2CC2)nc1 the result was CoaBC: 0.5008%; TcHisRS: 1.515%. For COc1ccc(CCN2CC(NCc3ncc[nH]3)CC2=O)cc1 (centres unmarked) the result was CoaBC: -0.2165%; TcHisRS: 7.2%.

Result for c1ccc(CN2CCC(NCCc3ccc4c(c3)CCO4)CC2)nc1 was CoaBC: -3.828%; TcHisRS: 4.902%. COc1cc(CSc2nnc(C)n2CC(N)=O)ccc1SC read CoaBC: -54.93%; TcHisRS: 1.84%. O=C(C1CCOCC1)N1CCO[C@H]2[C@@H](OCC3CC3)CC[C@@H]21 read CoaBC: 1.253%; TcHisRS: 7.317%. For Cc1noc(Cl)c1CC(=O)N1CCC(Nc2cccnn2)CC1 the result was CoaBC: 4.689%; TcHisRS: 5.325%. CCOCCC1(CNC(=O)c2ccsc2)CCC1 gave CoaBC: 3.505%; TcHisRS: 0.4425%. Cc1cncc(C(=O)N2CC[C@@H]3[C@H]2CCC(=O)N3CCN(C)C)c1 gave TcHisRS: 9.816%. For CC(=O)NCc1nnn2c1CN(c1ncc(C)cn1)CCC2 the result was CoaBC: 3.837%; TcHisRS: 2.513%.

N#Cc1ccc(N2CCN(c3nccs3)CC2)nc1 read CoaBC: 1.071%; TcHisRS: 1.571%. For O=C(NC[C@H]1OC[C@@H](NC2CCOCC2)[C@@H]1O)C1CCCC1 the result was CoaBC: 2.428%; TcHisRS: 3.261%. COc1ccc(NC(=O)CCn2nc(-c3cccs3)oc2=O)cc1OC gave CoaBC: 1.66%; TcHisRS: 5.202%. Result for CC(=O)N1CCOCC(Cc2ccc3c(ccn3C)c2)C1 (centres unmarked) was CoaBC: -3.946%; TcHisRS: 12.12%. With Cn1cc(C(C)(O)CNc2ccc(C(F)(F)F)cn2)cn1 (centres unmarked) the screen gave CoaBC: 11.07%; TcHisRS: 1.685%. Result for Fc1cnc(N2CC[C@@H]3O[C@@H](COCc4cccnc4)CC[C@@H]32)nc1 was CoaBC: -1.018%; TcHisRS: 8.046%. CS(=O)(=O)NC(=O)c1cnc2c(cnn2C2CCCC2)c1 read CoaBC: -5.042%; TcHisRS: 7.778%.

With O=C(NCC1CCOC1)c1csc(-c2ccc(F)cc2)n1 (centres unmarked) the screen gave CoaBC: 2.71%; TcHisRS: 3.448%. CC1CCCCN1C(=O)CCn1cnc2sccc2c1=O (centres unmarked) gave CoaBC: 1.202%; TcHisRS: 7.595%.

Some entries from above, unchanged:

SMILES	CoaBC	TcHisRS
COc1ccc(NC(=O)CCn2nc(-c3cccs3)oc2=O)cc1OC	1.66	5.202
CS(=O)(=O)NC(=O)c1cnc2c(cnn2C2CCCC2)c1	-5.042	7.778
N#Cc1ccc(N2CCN(c3nccs3)CC2)nc1	1.071	1.571

Data taken from ChEMBL document CHEMBL3988442, “University of Dundee, Small-Polar-MMV Screening Library” (2021).